{"source": "patent US20240132484A1", "about": "“BROAD SPECTRUM ANTIVIRAL COMPOUNDS TARGETING THE SKI COMPLEX” (priority 2020, published 2024)", "tested_on": "SARS2", "format": "cell-based, SARS-CoV-2", "note": "Some of these results come from one statement about several compounds together. For at least one compound, name, drawing or mass did not settle the structure.", "data": [{"smiles": "CC1=C(C(=O)NC2CCCCCC2)C(c2cccs2)NC(=O)N1", "note": "(centres unmarked) [SILCS61]", "values": [{"measurement": "SARS2 activity relative to UMB18/UMB18G (fold worse)", "result": "≤ 2", "unit": "fold"}]}, {"smiles": "CC1=C(C(=O)NCC2CCC2)C(c2cccs2)NC(=O)N1", "note": "(centres unmarked) [SILCS62]", "values": [{"measurement": "SARS2 activity relative to UMB18/UMB18G (fold worse)", "result": "≤ 2", "unit": "fold"}]}]}
